Laboratory results taken from paper PMC7870876.
Results are given in words; binding and its absence hold for the method and conditions named. In cells and extracts the contact can be indirect. Some binding calls cover weakened binding; strength is not graded here.

T1: CSP (rat (endogenous in rat brain synaptic vesicles)), P60905
T1 chain: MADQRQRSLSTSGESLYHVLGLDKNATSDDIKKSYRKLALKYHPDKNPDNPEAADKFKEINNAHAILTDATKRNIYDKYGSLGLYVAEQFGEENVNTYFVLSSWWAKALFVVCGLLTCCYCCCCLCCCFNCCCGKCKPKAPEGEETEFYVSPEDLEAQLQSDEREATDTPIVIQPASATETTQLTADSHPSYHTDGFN


What was measured:
[1] = target: T2, Synaptophysin (rat (endogenous in rat brain synaptic vesicles)), P07825; assay: cross-linking; synaptic vesicles fused with ΔN-SNARE-proteoliposomes (100 nm liposomes), then BS3 and LC-MS/MS; vesicle proteins in the more spacious membrane; settings: remark: other sources report otherwise
[2] = target: T2, Synaptophysin (rat (endogenous in rat …)); assay: cross-linking; synaptic vesicles incubated with an excess of soluble ΔN-SNARE complex (about 3 copies per copy of Synaptobrevin-2, 16 h, 4 °C), then BS3 and LC-MS/MS; vesicle proteins and the SNARE complex on the vesicles; settings: remark: other sources report otherwise
[3] = target: Synapsin-1 (rat (endogenous in rat brain synaptic vesicles)), P09951; assay: cross-linking; purified, unstimulated, untreated rat brain synaptic vesicles; 10 mM BS3, 1 h, 25 °C; trypsin, enrichment of cross-linked peptides by peptide SEC, LC-MS/MS, pLink, manual validation; four biological replicates; settings: remark: other sources report otherwise
[4] = target: T2, Synaptophysin (rat (endogenous in rat …)); assay: as above; settings: remark: other sources report otherwise
[5] = target: T1, CSP (rat (endogenous in rat brain …)); assay: as above; settings: remark: other sources report otherwise
[6] = substrate: CSP (rat (endogenous in rat brain synaptic vesicles)) (UniProt P60905); assay: cross-linking; synaptic vesicles fused with ΔN-SNARE-proteoliposomes (100 nm liposomes), then BS3 and LC-MS/MS; vesicle proteins in the more spacious membrane
cross-linking = substrate: CSP (rat (endogenous in rat brain synaptic vesicles)) (UniProt P60905); assay: cross-linking
[7] = substrate: CSP (rat (endogenous in rat brain synaptic vesicles)) (UniProt P60905); assay: cross-linking; purified, unstimulated, untreated rat brain synaptic vesicles; 10 mM BS3, 1 h, 25 °C; trypsin, enrichment of cross-linked peptides by peptide SEC, LC-MS/MS, pLink, manual validation; four biological replicates

binding [1]	binding [2]	binding [3]	binding [4]	binding [5]	binding [6]	binding (cross-linking)	binding [7]	Binder
binds	binds	binds	binds	binds				Synaptophysin, P07825 1-307 (natural protein) MDVVNQLVAGGQFRVVKEPLGFVKVLQWVFAIFAFATCGSYTGELRLSVECANKTESALNIEVEFEYPFRLHQVYFDAPSCVKGGTTKIFLVGDYSSSAEFFVTVAVFAFLYSMGALATYIFLQNKYRENNKGPMMDFLATAVFAFMWLVSSSAWAKGLSDVKMATDPENIIKEMPMCRQTGNTCKELRDPVTSGLNTSVVFGFLNLVLWVGNLWFVFKETGWAAPFMRAPPGAPEKQPAPGDAYGDAGYGQGPGGYGPQDSYGPQGGYQPDYGQPASGGGGYGPQGDYGQQGYGQQGAPTSFSNQM
					binds	binds	binds	CSP (protein, UniProt P60905 1-198) MADQRQRSLSTSGESLYHVLGLDKNATSDDIKKSYRKLALKYHPDKNPDNPEAADKFKEINNAHAILTDATKRNIYDKYGSLGLYVAEQFGEENVNTYFVLSSWWAKALFVVCGLLTCCYCCCCLCCCFNCCCGKCKPKAPEGEETEFYVSPEDLEAQLQSDEREATDTPIVIQPASATETTQLTADSHPSYHTDGFN
